Test results as given in the supplement of paper PMC4683952.
Counter-ions that a name gives are not always drawn. The list shows a part of the results. Cut-off read from the data, not from the text of the source: active = 2.5 or more and inactive = the rest. Most values lie within the scatter of the assay; repeated measurements hardly agree.

What follows are molecules tested on Lgr5 (MarsCy1-Lgr5-EGFP, U2OS) (assay: cell-surface Lgr5 expression (SCi1 fluorescence, background-subtracted) relative to WT control (fold of WT control); higher = more Lgr5 at the plasma membrane). Settings: U2OS MarsCy1-Lgr5-EGFP stable; treatment time: overnight; library: Prestwick; 20 µM.

Compound	cell-surface Lgr5 expression
NC(=O)c1cnccn1 [Pyrazinamide]	inactive: 2.23
N/C(=N\C(=O)c1nc(Cl)c(N)nc1N)NCc1ccccc1 [Benzamil hydrochloride]	inactive: 1.88
O=C(CCNNC(=O)c1ccncc1)NCc1ccccc1 [Nialamide]	inactive: 0.911
Cc1nc2ccccn2c(=O)c1CCN1CCC(C(=O)c2ccc(F)cc2)CC1 [Pirenperone]	active: 3.24
CN1C(=O)CC[C@H]1c1cccnc1 [Cotinine (-)]	inactive: 1.65
CC[C@@H]1C(=O)OC[C@@H]1Cc1cncn1C [Pilocarpine nitrate]	inactive: 2.11
CC(O)Cn1cnc2c1c(=O)n(C)c(=O)n2C (configuration not stated) [Proxyphylline]	active: 3.03
CC(C)NC[C@@H](O)COc1ccc(CC(N)=O)cc1 [(R)-(+)-Atenolol]	inactive: 1.47
NS(=O)(=O)c1cc2c(cc1C(F)(F)F)NCNS2(=O)=O [Hydroflumethiazide]	inactive: 1.06
CC(=O)NS(=O)(=O)c1ccc(N)cc1 [Sulfacetamide sodic hydrate]	inactive: 1.04
COc1cccc2c1C(=O)c1c(O)c3c(c(O)c1C2=O)C[C@@](O)(C(C)=O)C[C@@H]3O[C@H]1C[C@H](N)[C@H](O)[C@H](C)O1 [Daunorubicin hydrochloride]	inactive: 1.84
CO[C@@H]1[C@@H](O[C@@H]2O[C@H](C)[C@@H](O[C@H]3C[C@@](C)(O)[C@@H](OC(=O)CC(C)C)[C@H](C)O3)[C@H](N(C)C)[C@H]2O)[C@@H](CC=O)C[C@@H](C)[C@@H](O)/C=C/C=C/C[C@@H](C)OC(=O)C[C@H]1OC(C)=O [Josamycin]	inactive: 0.851
CCC(=O)O[C@@H]1CC(=O)O[C@H](C)C/C=C/C=C/[C@H](O)[C@H](C)C[C@H](CC=O)[C@H](O[C@@H]2O[C@H](C)[C@@H](O[C@H]3C[C@@](C)(O)[C@@H](OC(=O)CC)[C@H](C)O3)[C@H](N(C)C)[C@H]2O)[C@H]1OC [Midecamycin]	inactive: 1.07
CCN(CC)CC(=O)Nc1c(C)cccc1C [Lidocaïne hydrochloride]	inactive: 1.72
COC(=O)C1=CO[C@@H](C)[C@H]2CN3CCc4c([nH]c5ccccc45)[C@@H]3C[C@H]12 [Ajmalicine hydrochloride]	inactive: 1.66
CC(=O)OCC(=O)[C@@]12OC(C)(C)O[C@@H]1C[C@H]1[C@@H]3C[C@H](F)C4=CC(=O)C=C[C@]4(C)[C@@]3(F)[C@@H](O)C[C@@]12C [Fluocinonide]	active: 3.1
c1ccc2c(CC3=NCCN3)cccc2c1 [Naphazoline hydrochloride]	inactive: 1.22
CN1CCN(C(c2ccccc2)c2ccccc2)CC1 [Cyclizine hydrochloride]	inactive: 1.99
OCCN(CCO)c1nc(N2CCCCC2)c2nc(N(CCO)CCO)nc(N3CCCCC3)c2n1 [Dipyridamole]	inactive: 0.97
O=C(O)c1ccccc1C(=O)Nc1ccc(S(=O)(=O)Nc2nccs2)cc1 [Phthalylsulfathiazole]	inactive: 1.29
CN1CCC(=C2c3ccccc3Sc3ccccc32)CC1 [Pimethixene maleate]	inactive: 1.51
N[C@@H](Cc1cc(I)c(Oc2ccc(O)c(I)c2)c(I)c1)C(=O)O [Liothyronine]	inactive: 1.91
NC[C@@H]1O[C@@H](O[C@H]2[C@H](O)[C@@H](O[C@H]3O[C@H](CO)[C@@H](O)[C@H](N)[C@H]3O)[C@H](N)C[C@@H]2N)[C@@H](O)[C@H](O)[C@H]1O [Kanamycin A sulfate]	inactive: 1.59
CC1CC(OC(=O)c2ccccc2O)CC(C)(C)C1 (configuration not stated) [Homosalate]	inactive: 1.01
C[C@H](CCC(=O)O)[C@H]1CC[C@H]2[C@@H]3[C@@H](O)C[C@@H]4C[C@H](O)CC[C@]4(C)[C@H]3CC[C@]12C [Urosiol]	inactive: 1.66
C#C[C@]1(O)CC[C@H]2[C@@H]3CCC4=CCCC[C@@H]4[C@H]3CC[C@@]21C [Lynestrenol]	inactive: 0.896
O=C(CCCN1CCN(c2ccccn2)CC1)c1ccc(F)cc1 [Azaperone]	inactive: 1.11

2 consecutive compounds out of the list so far:
Compound	cell-surface Lgr5 expression
COC(=O)C1=CO[C@@H](C)[C@H]2CN3CCc4c([nH]c5ccccc45)[C@@H]3C[C@H]12 [Ajmalicine hydrochloride]	inactive: 1.66
CC(=O)OCC(=O)[C@@]12OC(C)(C)O[C@@H]1C[C@H]1[C@@H]3C[C@H](F)C4=CC(=O)C=C[C@]4(C)[C@@]3(F)[C@@H](O)C[C@@]12C [Fluocinonide]	active: 3.1
